For some of these results: Expression grades refer to the transcript from which the peptide derives; gene names, where given, were looked up from the sequence.
How the values were obtained:
Set-up in all cases: species or system human
[1] = test system: source genes of selected peptides; experiment: Expression profiling of source genes by in-house RNAseq, tumor vs normal tissues (target coverage); details: for Target coverage, over-expression of source gene, AML: AML (N = 7), over-expression = more than 1.5-fold higher expression on tumor vs highest-expressing relevant normal tissue; for Target coverage, over-expression of source gene, AML / Target coverage, over-expression of source gene, BRCA / Target coverage, over-expression of source gene, CLL / Target coverage, over-expression of source gene, CRC / Target coverage, over-expression of source gene, GB / Target coverage, over-expression of source gene, HCC / Target coverage, over-expression of source gene, OC / Target coverage, over-expression of source gene, OSCAR / Target coverage, over-expression of source gene, PC / Target coverage, over-expression of source gene, RCC / Target coverage, over-expression of source gene, SCLC / Target coverage, over-expression of source gene, pNSCLC: in-house RNASeq; for Target coverage, over-expression of source gene, BRCA: BRCA (N = 10); for Target coverage, over-expression of source gene, BRCA / Target coverage, over-expression of source gene, CLL / Target coverage, over-expression of source gene, CRC / Target coverage, over-expression of source gene, GB / Target coverage, over-expression of source gene, HCC / Target coverage, over-expression of source gene, OC / Target coverage, over-expression of source gene, OSCAR / Target coverage, over-expression of source gene, PC / Target coverage, over-expression of source gene, RCC / Target coverage, over-expression of source gene, SCLC / Target coverage, over-expression of source gene, pNSCLC: over-expression = more than 1.5-fold vs highest normal tissue; for Target coverage, over-expression of source gene, CLL: CLL (N = 10); for Target coverage, over-expression of source gene, CRC: CRC (N = 20); for Target coverage, over-expression of source gene, GB: GB (N = 24); for Target coverage, over-expression of source gene, HCC: HCC (N = 15); for Target coverage, over-expression of source gene, OC: OC (N = 12); for Target coverage, over-expression of source gene, OSCAR: OSCAR (N = 11); for Target coverage, over-expression of source gene, PC: PC (N = 26); for Target coverage, over-expression of source gene, RCC: RCC (N = 10); for Target coverage, over-expression of source gene, SCLC: SCLC (N = 10); for Target coverage for source genes of selected peptides, GBC_CCC (N = 10): gallbladder adenocarcinoma and cholangiocarcinoma; for Target coverage for source genes of selected peptides, GBC_CCC (N = 10) / Target coverage for source genes of selected peptides, GC (N = 11) / Target coverage for source genes of selected peptides, HNSCC (N = 10) / Target coverage for source genes of selected peptides, MEL (N = 10) / Target coverage for source genes of selected peptides, NHL (N = 10) / Target coverage for source genes of selected peptides, PCA (n = 10) / Target coverage for source genes of selected peptides, UBC (N = 10) / Target coverage for source genes of selected peptides, UTC (N = 10): share of tumors with more than 1.5-fold higher expression than the highest-expressing relevant normal tissue, in-house RNAseq; for Target coverage for source genes of selected peptides, GC (N = 11): gastric cancer; for Target coverage for source genes of selected peptides, HNSCC (N = 10): head and neck small cell carcinoma; for Target coverage for source genes of selected peptides, MEL (N = 10): melanoma; for Target coverage for source genes of selected peptides, NHL (N = 10): non-Hodgkin lymphoma; for Target coverage, over-expression of source gene, pNSCLC: pNSCLC (N = 11); for Target coverage for source genes of selected peptides, PCA (n = 10): prostate cancer and benign prostate hyperplasia; for Target coverage for source genes of selected peptides, UBC (N = 10): urinary bladder cancer; for Target coverage for source genes of selected peptides, UTC (N = 10): uterine cancer
[2] = test system: HLA-A*02 molecules of primary tumors; experiment: Identification and relative LC-MS quantitation of HLA-A*02 tumor-associated peptides presented on tissue samples (XPRESIDENT presentation profiles)
[3] = test system: source genes of selected peptides; experiment: Target coverage of source genes in tumor entities based on TCGA Research Network data; details: over-expressed = more than 2-fold above the highest 75% percentile of normal organs; for Target coverage, over-expression category of source gene, BLCA (N = 408): Bladder urothelial carcinoma; for Target coverage, over-expression category of source gene, CESC (N = 307): Cervical squamous cell carcinoma and endocervical adenocarcinoma; for Target coverage, over-expression category of source gene, HNSC (N = 521): Head and neck squamous cell carcinoma; for Target coverage, over-expression category of source gene, CHOL (N = 36): Cholangiocarcinoma
[4] = test system: HLA-A*24 molecules of primary tumors; experiment: Identification and relative LC-MS quantitation of HLA-A*24 tumor-associated peptides presented on tissue samples (XPRESIDENT presentation profiles); details: Table 9B: selected HLA-A*24 peptides; presentation on additional cancer entities
[5] = Table 8A: selected HLA-A*02-binding tumor-associated peptides, cancer entities on which the peptide was found presented
[6] = Table 8B: selected HLA-A*02 peptides, presentation on additional cancer entities

Row | Substance | Target coverage, over-expression of source gene, AML [1] | Target coverage, over-expression of source gene, BRCA [1] | Target coverage, over-expression of source gene, CLL [1] | Target coverage, over-expression of source gene, CRC [1] | Target coverage, over-expression of source gene, GB [1] | Target coverage, over-expression of source gene, HCC [1] | Target coverage, over-expression of source gene, OC [1] | Target coverage, over-expression of source gene, OSCAR [1] | Target coverage, over-expression of source gene, PC [1] | Target coverage, over-expression of source gene, RCC [1] | Target coverage, over-expression of source gene, SCLC [1] | Target coverage for source genes of selected peptides, GBC_CCC (N = 10) [1] | Target coverage for source genes of selected peptides, GC (N = 11) [1] | Target coverage for source genes of selected peptides, HNSCC (N = 10) [1] | Target coverage, over-expression of source gene, pNSCLC [1] | Peptide Presentation on cancer entities [2, 5] | Peptide Presentation on cancer entities [2, 6] | Target coverage, over-expression category of source gene, BLCA (N = 408) [3] | Target coverage, over-expression category of source gene, CESC (N = 307) [3] | Target coverage, over-expression category of source gene, HNSC (N = 521) [3] | other results
1 | 32: peptide found in PRKDC (gene looked up) (ILADEAFFSV; listed as Homo sapiens) [compound 32] | I (<19% over-expression = I) | III (50-69% = III) | I (<19% over-expression = I) | II (20-49% = II) | III (50-69% = III) | I (<19% over-expression = I) | III (50-69% = III) | II (20-49% = II) | I (<19% over-expression = I) | I (<19% over-expression = I) | IV (>70% = IV) | I (<19% over-expression = I) | I (<19% over-expression = I) | I (<19% over-expression = I) | III (50-69% = III) | CLL, PC, GB, UBC, PCA, CRC, SCLC, HCC, RCC, OC, NSCLC, MEL, OSCAR, clPC, GC, BRCA, NHL | HNSCC, UTC, AML, GBC_CCC | C (>=5% of tumors above the cutoff, but <20%) | C (>=5% of tumors above the cutoff, but <20%) | B (>=20% of tumors above the cutoff, but <50%) | Target coverage for source genes of selected peptides, MEL (N = 10) [1]: II (20-49% = II); Target coverage for source genes of selected peptides, NHL (N = 10) [1]: II (20-49% = II); Target coverage for source genes of selected peptides, PCA (n = 10) [1]: I (<19% over-expression = I); Target coverage for source genes of selected peptides, UBC (N = 10) [1]: I (<19% over-expression = I); Target coverage for source genes of selected peptides, UTC (N = 10) [1]: I (<19% over-expression = I); Target coverage, over-expression category of source gene, SARC (N = 263) ([3]; Sarcoma): C (>=5% of tumors above the cutoff, but <20%); Target coverage, over-expression category of source gene, SKCM (N = 473) ([3]; Skin cutaneous melanoma): C (>=5% of tumors above the cutoff, but <20%); Target coverage, over-expression category of source gene, STAD (N = 415) ([3]; Stomach adenocarcinoma): B (>=20% of tumors above the cutoff, but <50%); Target coverage, over-expression category of source gene, TGCT (N = 156) ([3]; Testicular germ cell tumors): B (>=20% of tumors above the cutoff, but <50%); Target coverage, over-expression category of source gene, UCS (N = 57) ([3]; Uterine carcinosarcoma): B (>=20% of tumors above the cutoff, but <50%); Target coverage, over-expression category of source gene, UVM (N = 80) ([3]; Uveal melanoma): C (>=5% of tumors above the cutoff, but <20%)
2 | 50 (EYALLYHTL; listed as Homo sapiens) [compound 50] |  |  |  |  |  |  |  |  |  |  |  |  |  |  |  |  | GBC_CCC |  |  |  | Peptide Presentation on cancer entities [4]: PCA, HCC, NSCLC, CRC, GC, RCC
3 | 54: peptide found in ITGA2 (gene looked up) (FINPKGNWLL; listed as Homo sapiens) [compound 54] | I (<19% over-expression = I) | I (<19% over-expression = I) | I (<19% over-expression = I) | I (<19% over-expression = I) | I (<19% over-expression = I) | I (<19% over-expression = I) | I (<19% over-expression = I) | I (<19% over-expression = I) | II (20-49% = II) | I (<19% over-expression = I) | I (<19% over-expression = I) |  |  |  | II (20-49% = II) | UBC, NSCLC, clPC | UTC, HNSCC | C (>=5% of tumors above the cutoff, but <20%) | C (>=5% of tumors above the cutoff, but <20%) | C (>=5% of tumors above the cutoff, but <20%) | Target coverage, over-expression category of source gene, CHOL (N = 36) [3]: C (>=5% of tumors above the cutoff, but <20%)
4 | 335: peptide found in NUP210 (gene looked up) (VLLAAGPSAA; listed as Homo sapiens) [compound 335] | I (<19% over-expression = I) | I (<19% over-expression = I) | II (20-49% = II) | I (<19% over-expression = I) | I (<19% over-expression = I) | I (<19% over-expression = I) | I (<19% over-expression = I) | I (<19% over-expression = I) | I (<19% over-expression = I) | I (<19% over-expression = I) | II (20-49% = II) | I (<19% over-expression = I) | I (<19% over-expression = I) | I (<19% over-expression = I) | I (<19% over-expression = I) | UBC, CLL, NSCLC, GC, clPC | AML, CRC, UTC, NHL | B (>=20% of tumors above the cutoff, but <50%) | A (>=50% of tumors above the cutoff) | C (>=5% of tumors above the cutoff, but <20%) | Target coverage for source genes of selected peptides, MEL (N = 10) [1]: I (<19% over-expression = I); Target coverage for source genes of selected peptides, NHL (N = 10) [1]: III (50-69% = III); Target coverage for source genes of selected peptides, PCA (n = 10) [1]: I (<19% over-expression = I); Target coverage for source genes of selected peptides, UBC (N = 10) [1]: I (<19% over-expression = I); Target coverage for source genes of selected peptides, UTC (N = 10) [1]: I (<19% over-expression = I); Target coverage, over-expression category of source gene, CHOL (N = 36) [3]: C (>=5% of tumors above the cutoff, but <20%); Target coverage, over-expression category of source gene, DLBC (N = 48) ([3]; Lymphoid neoplasm diffuse large B-cell lymphoma): A (>=50% of tumors above the cutoff); Target coverage, over-expression category of source gene, MESO (N = 87) ([3]; Mesothelioma): C (>=5% of tumors above the cutoff, but <20%)
